Data: US20240209028A1, “CNP COMPOUNDS” (priority 2022, published 2024)
At least one structure is not confirmed: it was looked up by name or label, or the drawing left a doubt. Starred links: 1 amine or outer side, 2 acyl side, 3 side chain; linkers in the order of their positions; H or OH if unused. Positions of bridges follow the written chain, without caps; N, C: chain ends. Non-standard residues stand in square brackets, D forms with d. Residues, ends and D or L forms follow the SMILES beside them. *: point of attachment. d(γGlu) = O=C(O)[C@@H](CCC(=O)[*:2])N[*:1]; C18 diacid = O=C(O)CCCCCCCCCCCCCCCCC(=O)*; AEEA = NCCOCCOCC(=O)O

Target: T1, human natriuretic peptide receptor 2 (hNPR2) (Homo sapiens, UniProt P20594)
T1 construct: expressed in transfected cells; host or cells: HEK293 (ATCC CRL-1573), clone 35, co-transfected with pGloSensor-42F
T1 sequence (P20594 23-1047): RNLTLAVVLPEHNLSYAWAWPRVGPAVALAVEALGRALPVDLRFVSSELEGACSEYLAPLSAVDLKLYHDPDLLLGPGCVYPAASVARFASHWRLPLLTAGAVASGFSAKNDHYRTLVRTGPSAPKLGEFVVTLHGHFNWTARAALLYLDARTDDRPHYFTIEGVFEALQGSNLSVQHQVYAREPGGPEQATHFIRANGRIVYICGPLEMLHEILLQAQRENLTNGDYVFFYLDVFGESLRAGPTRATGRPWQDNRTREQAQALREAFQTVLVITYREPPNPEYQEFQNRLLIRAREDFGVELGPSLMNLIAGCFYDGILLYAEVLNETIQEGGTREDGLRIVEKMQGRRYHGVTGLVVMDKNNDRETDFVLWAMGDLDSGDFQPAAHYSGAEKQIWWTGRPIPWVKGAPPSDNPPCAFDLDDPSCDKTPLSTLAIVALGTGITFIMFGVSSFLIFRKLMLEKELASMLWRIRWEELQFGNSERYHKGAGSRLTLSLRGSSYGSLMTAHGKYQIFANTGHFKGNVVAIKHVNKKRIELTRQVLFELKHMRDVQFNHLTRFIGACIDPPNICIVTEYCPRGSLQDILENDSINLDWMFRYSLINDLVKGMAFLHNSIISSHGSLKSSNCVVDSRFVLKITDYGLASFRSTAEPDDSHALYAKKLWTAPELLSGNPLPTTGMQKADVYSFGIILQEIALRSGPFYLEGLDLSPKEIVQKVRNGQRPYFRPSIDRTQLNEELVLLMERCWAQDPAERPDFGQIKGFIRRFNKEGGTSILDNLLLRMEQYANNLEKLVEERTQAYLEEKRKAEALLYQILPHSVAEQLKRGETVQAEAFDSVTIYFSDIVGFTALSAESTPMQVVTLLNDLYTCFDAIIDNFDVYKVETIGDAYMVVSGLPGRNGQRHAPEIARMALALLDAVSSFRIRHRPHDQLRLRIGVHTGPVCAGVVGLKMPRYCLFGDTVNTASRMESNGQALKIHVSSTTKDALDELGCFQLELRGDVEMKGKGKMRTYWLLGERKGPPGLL
Assay: In vitro hNPR2 activity assay (cGMP GloSensor reporter, HEK293)
Type: cell-based
Settings: 0% HSA; HEK293-hNPR2/GloSensor cells
Description: To evaluate the in vitro activity of CNP22 (0065; Chem. 1) and CNP compounds of the invention, they were tested for their ability to induce production of cyclic guanosine monophosphate (cGMP) in reporter cells expressing the human natriuretic peptide receptor 2 (hNPR2).
Cell culture: To produce the reporter cell line, HEK293 (ATCC® CRL-1573™) cells were stably transfected with the pGloSensor-42F reporter plasmid (GloSensor cGMP reporter—luciferase, Promega) and an expression plasmid encoding the hNPR2 receptor. A single cell clone was isolated for the reporter cell line. When reporter cells are exposed to an hNPR2 activating compound, hNPR2 cause production of cGMP. […] Active GloSensor luciferase is able to convert luciferin to oxyluciferin, a process that produces bioluminescence. Upon cell lysis and supply of luciferase substrate, luciferase activity can be quantified by detection of luminescence. Therefore, addition of an hNPR2 activating compound and subsequent addition of detection reagent to reporter cells causes generation of luminescence in a dose dependent manner. […]
Procedure: HEK293-hNPR2/GloSensor clone 35 cells were continuously cultured in selection medium (DMEM containing 10% FCS, 1% P/S, 200 μg/mL G418 and 100 μg/mL hygromycin). […] A minimum of two replicates was measured for each test compound.

CC[C@@H](C)[C@H]1NC(=O)[C@@H](CCCNC(=N)N)NC(=O)[C@@H](CCC(=O)O)NC(=O)[C@@H](CC(C)C)NC(=O)[C@@H](CCCCN)NC(=O)[C@@H](CC(C)C)NC(=O)CNC(=O)[C@@H](Cc2ccccc2)NC(=O)[C@H](NC(=O)CNC(=O)[C@@H](CCCCN)NC(=O)[C@@H](CO)NC(=O)[C@@H](CC(C)C)NC(=O)CNC(=O)[C@@H](CCCCN)NC(=O)[C@@H](CCCCN)NC(=O)[C@@H](CCC(N)=O)NC(=O)[C@@H](C)NC(=O)CNC(=O)[C@@H](CCCCN)NC(=O)[C@@H](Cc2ccc(O)cc2)NC(=O)[C@@H](CCCCN)NC(=O)[C@@H](CCCNC(=N)N)NC(=O)[C@@H](C)NC(=O)COCCOCCNC(=O)COCCOCCNC(=O)CC[C@@H](NC(=O)CCCCCCCCCCCCCCCCC(=O)O)C(=O)O)CSSC[C@H](C(=O)O)NC(=O)CNC(=O)[C@@H](CC(C)C)NC(=O)CNC(=O)[C@@H](CO)NC(=O)[C@@H](CC(C)C)NC(=O)[C@@H](CO)NC(=O)CNC1=O [compound 1265] ({C18 diacid-d(γGlu)-AEEA-AEEA}-[dA][dR][dK][dY][dK]G[dA][dQ][dK][dK]G[dL][dS][dK]G[dC][dF]G[dL][dK][dL][dE][dR][dI]G[dS][dL][dS]G[dL]G[dC]-OH; disulfide 16-32)
EC50: > 1000 nM
